Reference: PubChem BioAssay AID720505 (Drosophila RNAi Screening Center, 2013)
Assay: 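Genes needed for store-operated calcium entry in fly cells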 (primary screen). System: Drosophila S2R+ cells. Reagents: long dsRNA against Drosophila genes. Treatment: thapsigargin (2 µM) in calcium-free buffer to empty internal stores, then 2 mM calcium added back. Measured: 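Stores emptied by 2 µM thapsigargin without calcium, then 2 mM calcium re-added; fluo-4 fluorescence followed by FLIPR in 384-well plates, per-well averaged endpoint, raw; two screen passes, some wells retested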. Direction: calcium signal and retest calcium signal: higher = more calcium entry after store depletion. Hit rule: 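Knock-downs counted as hits when calcium entry dropped relative to STIM1 positive and Rho1 negative controls present on each plate; roughly 1500 genes called, with reductions of differing size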. Meaning of the calls: active = called as lowering calcium entry; inactive = not called.
The screen tested about 20,000 reagents; shown is a random part of those with a known target gene and a result. Over the whole deposit, about 2,100 (10%) were called active. 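Raw plate signals without normalisation; calls rest on control-based scores that were not deposited; replicate 2 separates called from uncalled poorly.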 Entries without a mark were called inactive. The record does not give: the amount of reagent, the time to read-out.

| target | DRSC id | calcium signal, replicate 1 | calcium signal, replicate 2 | retest calcium signal, replicate 1 | retest calcium signal, replicate 2 |
| --- | --- | --- | --- | --- | --- |
| sog (short gastrulation) | DRSC20379 | 90 | 95.7 | – | – |
| Yod1 (Yod1 deubiquitinase) | DRSC10433 | 103 | 113 | – | – |
| amrt (amaretto) | DRSC19378 | 82.5 | 83.7 | – | – |
| lncRNA:iab8 (long non-coding RNA:iab8) | DRSC13187 | 72.5 | 88.7 | – | – |
| lncRNA:iab8 (long non-coding RNA:iab8) | DRSC22252 | 100 | 144 | – | – |
| unk (unkempt) | DRSC17093 | 201 | 291 | – | – |
| Ktl (Kctd12-like) | DRSC14270 | 186 | 267 | – | – |
| CG30197 | DRSC22394 | 86.8 (active) | 87.2 | – | – |
| Bap60 (Brahma associated protein 60kD) | DRSC19337 | 163 | 154 | – | – |
| CG34049 | DRSC00104 | 80.5 (active) | 79.1 | – | – |
| MRP (Multidrug-Resistance like Protein 1) | DRSC02942 | 199 | 185 | – | – |
| CG13054 | DRSC09935 | 98.8 | 137 | – | – |
| CG5697 | DRSC15858 | 162 | 157 | – | – |
| mTTF (mitochondrial transcription termination factor) | DRSC01909 | 123 | 107 | – | – |
| Smu1 (Smu1 spliceosomal factor) | DRSC15803 | 191 | 141 | – | – |
| blow (blown fuse) | DRSC07586 | 156 | 98.2 | – | – |
| CG1894 | DRSC15396 | 161 | 138 | – | – |
| CG6052 | DRSC10574 | 74.9 | 126 | – | – |
| CDK2AP1 (CDK2-associated protein 1) | DRSC19800 | 109 | 76.9 | – | – |
| Hinfp (Histone H4 transcription factor) | DRSC18484 | 63.4 (active) | 147 | – | – |
| kat80 (katanin 80) | DRSC20344 | 82.4 | 156 | – | – |
| kat80 (katanin 80) | DRSC20345 | 99.6 | 143 | – | – |
| CG14300 | DRSC14779 | 156 | 195 | – | – |
| Tace | DRSC16340 | 122 | 103 | – | – |
| CG1640 | DRSC19750 | 144 | 120 | – | – |
| Sodh1 (Sorbitol dehydrogenase 1) | DRSC12605 | 99.6 | 141 | – | – |
| CAH4 (Carbonic anhydrase 4) | DRSC22433 | 142 | 211 | – | – |
| CG2540 | DRSC19856 | 100 | 118 | – | – |
| CG4440 | DRSC02747 | 57.7 (active) | 87.2 | – | – |
| CG6527 | DRSC10659 | 84 | 121 | – | – |
| CG30110 | DRSC05686 | 105 | 93 | – | – |
| CG12078 | DRSC08242 | 93.9 | 103 | – | – |
| l(2)efl (lethal (2) essential for life) | DRSC04698 | 145 | 78.5 | – | – |
| Rgk3 (Rad, Gem/Kir family member 3) | DRSC04250 | 81.4 | 99.8 | 133 | 138 |
| Rgk3 (Rad, Gem/Kir family member 3) | DRSC04251 | 93.3 | 95.2 | – | – |
| Rgk3 (Rad, Gem/Kir family member 3) | DRSC04254 | 116 | 107 | – | – |
| Rgk3 (Rad, Gem/Kir family member 3) | DRSC04255 | 121 | 114 | – | – |
| rngo (rings lost) | DRSC19903 | 141 | 153 | – | – |
| CR12798 (pseudo) | DRSC21078 | 130 | 89.6 | – | – |
| mAChR-A (muscarinic Acetylcholine Receptor, A-type) | DRSC04702 | 144 | 186 | – | – |
| Atg13 (Autophagy-related 13) | DRSC16228 | 120 | 158 | – | – |
| CG13315 | DRSC09986 | 72.7 | 80.9 | – | – |
| CG42271 | DRSC19809 | 140 | 81.1 | – | – |
| CG42271 | DRSC22894 | 112 | 213 | – | – |
| CG31473 | DRSC15443 | 139 | 184 | – | – |
| CG3581 | DRSC15499 | 192 | 182 | – | – |
| rig (rigor mortis) | DRSC06053 | 149 | 105 | – | – |
| rig (rigor mortis) | DRSC06400 | 78.9 | 74.5 | – | – |
| CG33463 | DRSC22915 | 104 | 165 | – | – |
| dec (defective chorion) | DRSC18759 | 255 | 73.8 | – | – |
| dec (defective chorion) | DRSC21477 | 139 | 121 | – | – |
| Mfe2 (peroxisomal Multifunctional enzyme type 2) | DRSC19869 | 159 | 158 | – | – |
| CG4168 | DRSC01446 | 66.4 (active) | 188 | – | – |
| CG4168 | DRSC01447 | 189 | 80.7 | – | – |
| CG4168 | DRSC01933 | 132 | 127 | – | – |
| CG4168 | DRSC21319 | 90.7 | 85.5 | – | – |
| CG4168 | DRSC22789 | 99.8 | 151 | – | – |
